Experimental data as given in paper doi:10.1101/2020.07.29.223594.

Sequences of proteins named here, by UniProt entry; tags and fusion partners are left off.
UniProt O09106: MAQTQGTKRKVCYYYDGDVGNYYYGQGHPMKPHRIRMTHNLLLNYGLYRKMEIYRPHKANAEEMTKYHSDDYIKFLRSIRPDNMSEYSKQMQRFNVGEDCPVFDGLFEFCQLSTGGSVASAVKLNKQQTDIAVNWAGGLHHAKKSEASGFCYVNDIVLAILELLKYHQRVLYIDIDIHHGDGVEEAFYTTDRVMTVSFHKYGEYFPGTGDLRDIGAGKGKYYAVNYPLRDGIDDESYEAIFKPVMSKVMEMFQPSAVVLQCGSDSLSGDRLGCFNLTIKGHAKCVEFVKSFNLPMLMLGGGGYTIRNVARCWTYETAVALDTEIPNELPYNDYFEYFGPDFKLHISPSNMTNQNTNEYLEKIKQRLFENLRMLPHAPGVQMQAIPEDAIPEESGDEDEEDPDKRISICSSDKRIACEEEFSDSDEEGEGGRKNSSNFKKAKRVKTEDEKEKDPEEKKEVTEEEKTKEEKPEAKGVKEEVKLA
UniProt Q6PDQ2: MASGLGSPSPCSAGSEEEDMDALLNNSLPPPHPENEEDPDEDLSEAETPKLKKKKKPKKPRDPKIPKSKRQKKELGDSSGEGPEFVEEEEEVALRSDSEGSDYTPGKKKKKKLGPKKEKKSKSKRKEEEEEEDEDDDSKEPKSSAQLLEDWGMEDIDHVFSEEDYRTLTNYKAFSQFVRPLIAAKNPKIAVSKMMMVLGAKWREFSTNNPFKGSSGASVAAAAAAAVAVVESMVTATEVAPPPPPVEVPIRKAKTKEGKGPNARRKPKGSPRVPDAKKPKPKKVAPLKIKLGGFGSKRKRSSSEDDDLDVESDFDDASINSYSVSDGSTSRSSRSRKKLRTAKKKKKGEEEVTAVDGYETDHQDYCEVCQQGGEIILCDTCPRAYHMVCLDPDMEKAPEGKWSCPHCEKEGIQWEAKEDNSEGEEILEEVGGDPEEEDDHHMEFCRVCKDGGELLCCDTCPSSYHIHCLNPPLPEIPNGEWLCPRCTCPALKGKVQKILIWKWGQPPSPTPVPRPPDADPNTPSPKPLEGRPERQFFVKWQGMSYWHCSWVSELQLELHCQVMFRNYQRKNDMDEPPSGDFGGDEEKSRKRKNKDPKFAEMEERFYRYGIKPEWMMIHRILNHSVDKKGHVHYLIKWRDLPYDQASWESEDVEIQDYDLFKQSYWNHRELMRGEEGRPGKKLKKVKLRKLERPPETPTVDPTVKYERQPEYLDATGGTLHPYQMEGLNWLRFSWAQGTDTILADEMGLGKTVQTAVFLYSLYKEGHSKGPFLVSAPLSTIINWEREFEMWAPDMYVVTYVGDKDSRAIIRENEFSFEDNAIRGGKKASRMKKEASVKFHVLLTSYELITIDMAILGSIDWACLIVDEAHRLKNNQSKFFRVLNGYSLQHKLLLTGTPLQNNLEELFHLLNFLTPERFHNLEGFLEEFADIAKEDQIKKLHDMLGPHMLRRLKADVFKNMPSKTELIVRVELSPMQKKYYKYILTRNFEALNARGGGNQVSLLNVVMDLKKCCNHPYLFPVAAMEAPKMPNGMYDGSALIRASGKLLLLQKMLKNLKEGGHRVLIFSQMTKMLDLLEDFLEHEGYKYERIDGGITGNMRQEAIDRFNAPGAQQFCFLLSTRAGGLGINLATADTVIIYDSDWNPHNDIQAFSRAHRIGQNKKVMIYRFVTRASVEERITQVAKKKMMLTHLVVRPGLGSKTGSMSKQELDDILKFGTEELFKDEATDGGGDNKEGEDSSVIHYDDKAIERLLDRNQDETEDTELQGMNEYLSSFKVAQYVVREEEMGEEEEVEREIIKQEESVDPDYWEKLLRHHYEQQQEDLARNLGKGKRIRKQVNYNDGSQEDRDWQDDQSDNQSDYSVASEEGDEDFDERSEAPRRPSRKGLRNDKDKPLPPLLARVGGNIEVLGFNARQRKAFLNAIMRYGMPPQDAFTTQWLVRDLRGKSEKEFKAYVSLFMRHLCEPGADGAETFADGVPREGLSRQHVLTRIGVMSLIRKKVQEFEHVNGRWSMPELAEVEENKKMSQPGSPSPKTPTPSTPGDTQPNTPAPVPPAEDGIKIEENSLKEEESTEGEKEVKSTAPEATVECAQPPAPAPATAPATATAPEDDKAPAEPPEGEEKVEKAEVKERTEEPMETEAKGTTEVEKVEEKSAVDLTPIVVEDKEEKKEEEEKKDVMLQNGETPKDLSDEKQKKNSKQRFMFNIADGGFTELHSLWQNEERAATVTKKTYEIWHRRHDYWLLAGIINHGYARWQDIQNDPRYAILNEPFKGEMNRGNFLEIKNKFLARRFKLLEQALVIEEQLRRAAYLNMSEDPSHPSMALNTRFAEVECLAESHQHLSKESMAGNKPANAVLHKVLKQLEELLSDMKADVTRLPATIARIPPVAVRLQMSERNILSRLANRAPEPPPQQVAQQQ

Target: T1, mouse APOBEC2 fused to BirA-Flag (mouse) (UniProt Q9WV35)
T1 sequence: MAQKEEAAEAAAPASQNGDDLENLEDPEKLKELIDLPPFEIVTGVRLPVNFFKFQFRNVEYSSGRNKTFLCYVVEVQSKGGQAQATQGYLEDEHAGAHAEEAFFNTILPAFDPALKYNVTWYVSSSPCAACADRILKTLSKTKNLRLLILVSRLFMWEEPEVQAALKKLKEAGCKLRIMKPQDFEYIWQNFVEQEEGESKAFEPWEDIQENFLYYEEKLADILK
Test: proximity labelling

binding	Substance
binds	histone deacetylase 1 (HDAC1) (from UniProt O09106 1-482)
binds	Chromodomain-helicase-DNA-binding protein 4 (CHD4) (from UniProt Q6PDQ2 1-1915)

No constants are given. Whether binding was seen depends on the method and setting. In cells and extracts the contact can be indirect. Here binding means that the protein was enriched with, or labelled near, the bait; the list need not be complete. Sequences can lack the tags named with a protein.
